Data as given in PubChem BioAssay AID1671195 (Yale University, 2021).
Test: 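Knockdowns that increase or decrease uptake of fluorescent LDL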 (primary screen). Cells: human Huh7 hepatoma cells. Knock-down reagent: siRNA pool against human genes, 18 nM. Timing: about 2 to 2.5 days of knockdown, then 8 h LDL uptake. Challenge: DiI-labelled LDL at 30 µg/ml for 8 h, in lipoprotein-deficient serum medium. Detection: 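Per-cell DiI-LDL intensity by automated imaging; well means scaled to the plate median and given as a robust z-score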. Reading the numbers: robust z-score: higher = more LDL uptake after knockdown. Call rule: 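a gene counts as active if at least two replicate z-scores exceed ±2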.
In all, the deposit lists about 22,000 reagents; below is a part drawn at random. Over the whole deposit, about 1,510 (6.9%) are marked active. 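Active includes knockdowns raising or lowering LDL uptake; positive z-scores mean more uptake, negative mean less.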 No sequences are given here.

The first 3 entries, ahead of the listing:
gene | robust z-score, replicate 1 | robust z-score, replicate 2 | robust z-score, replicate 3 | Call
LINC00857 (long independently transcribed non-coding RNA 857) | 0.0244 | -0.262 | -0.382 | inactive
ABCA5 (ATP binding cassette subfamily A member 5) | 0.305 | 0.747 | 0.576 | inactive
LOC441667 (retired record) | -0.491 | -0.598 | -0.106 | inactive

Results, repeating the preview:
gene | robust z-score, replicate 1 | robust z-score, replicate 2 | robust z-score, replicate 3 | Call
LINC00857 (long independently transcribed non-coding RNA 857) | 0.0244 | -0.262 | -0.382 | inactive
ABCA5 (ATP binding cassette subfamily A member 5) | 0.305 | 0.747 | 0.576 | inactive
LOC441667 (retired record) | -0.491 | -0.598 | -0.106 | inactive
HMGCR (3-hydroxy-3-methylglutaryl-CoA reductase) | 3 | 3.53 | 3.06 | active
LOC388924 (retired record) | -0.263 | -0.269 | -0.222 | inactive
DEPDC1 (DEP domain containing 1) | -1.12 | 0.438 | 0.98 | inactive
ETV4 (ETS variant transcription factor 4) | 0.345 | 0.364 | 0.481 | inactive
LNPK (lunapark, ER junction formation factor) | -0.279 | -0.414 | 0.0223 | inactive
SOCS3 (suppressor of cytokine signaling 3) | 0.424 | 2.23 | 0.632 | inactive
AKAP19 (A-kinase anchoring protein 19) | -0.941 | -0.692 | -1.23 | inactive
LOC441591 (retired record) | 0.606 | 0.102 | 0.272 | inactive
ANKRD33 (ankyrin repeat domain 33) | -0.699 | -0.658 | -0.813 | inactive
NUP188 (nucleoporin 188) | -0.487 | -0.429 | 0.616 | inactive
CHRM3 (cholinergic receptor muscarinic 3) | -2.57 | -2.02 | -2.04 | active
RPS8P10 (ribosomal protein S8 pseudogene 10) | 2.28 | 2.32 | 1.64 | active
GBA3 (glucosylceramidase beta 3 (gene/pseudogene)) | 0.432 | 0.478 | 1.05 | inactive
RAF1 (Raf-1 proto-oncogene, serine/threonine kinase) | 0.216 | 0.708 | 0.471 | inactive
PPP4R3B (protein phosphatase 4 regulatory subunit 3B) | 1.69 | 1.46 | 0.398 | inactive
LRP3 (LDL receptor related protein 3) | 0.344 | 0.415 | 0.323 | inactive
ARCN1 (archain 1 coat protein complex I subunit delta) | -1.46 | -1.29 | -1.9 | inactive
UFD1P1 (UFD1 pseudogene 1) | 1.02 | 1.12 | 1.44 | inactive
BGLAP (bone gamma-carboxyglutamate protein) | 0.0586 | -0.188 | 0.194 | inactive
GAGE1 (G antigen 1) | 0.18 | 0.667 | 0.299 | inactive
GRAMD1A (GRAM domain containing 1A) | 0.471 | -0.629 | -0.202 | inactive
SPAAR (small regulatory polypeptide of amino acid response) | 2.52 | 0.85 | 1.93 | active
C9orf78 (chromosome 9 open reading frame 78) | 0.671 | 0.461 | -2.08 | inactive
LOC440986 (retired record) | -0.284 | -0.256 | -0.68 | inactive
EPO (erythropoietin) | -0.482 | 0.116 | 0.5 | inactive
